{"source": "patent US20260217863A1", "about": "“ANTIBODY OR PEPTIDE BINDING SPECIFICALLY TO RNASE A, IMMUNOASSAY DEVICE AND METHOD FOR DETECTING RNASE A, AND METHOD FOR COLLECTING RNASE A” (UIF (University Industry Foundation), Yonsei University, priority 2022, published 2026)", "target": "T1, RNase A (Bos taurus, UniProt P61823)", "T1 sequence (P61823 27-150)": "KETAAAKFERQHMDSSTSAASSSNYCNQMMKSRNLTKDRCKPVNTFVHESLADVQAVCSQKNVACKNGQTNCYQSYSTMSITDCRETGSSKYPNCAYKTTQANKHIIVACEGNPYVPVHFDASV", "test": "RNase inhibition with RNA extracted from E. coli after transformation of SARS-CoV-2 NP", "assay_type": "biochemical", "conditions": "RNA from E. coli after transformation of SARS-CoV-2 NP", "note": "At least one peptide structure holds a part that was inferred or is arguable (an end, a ring closure or a residue). Where no end group is shown, it is not given here.", "data": [{"sequence": "YGPVGRVKRDD [Peptide-2]", "values": [{"measurement": "comparison as RNase A inhibitor for total RNA of E. coli", "result": "more favorable as an RNase A inhibitor for the total RNA of E. coli compared to peptide-1"}]}]}
